{"source": "paper PMC10069049", "biological_target": "Flag-CDV H (H protein of CDV 851, pCA-Flag-H-WT) (canine distemper virus, strain 851)", "assay": "affinity purification with mass spectrometry", "note": "These are yes or no findings as the source states them, for the method shown. Binding seen in cells or lysates may run through a third protein. These calls come from enrichment with a bait or labelling near it, and not all partners need be listed.", "data": [{"binder": "PDIA4 (protein, UniProt P13667 21-645) VAGAEGPDEDSSNRENAIEDEEEEEEEDDDEEEDDLEVKEENGVLVLNDANFDNFVADKDTVLLEFYAPWCGHCKQFAPEYEKIANILKDKDPPIPVAKIDATSASVLASRFDVSGYPTIKILKKGQAVDYEGSRTQEEIVAKVREVSQPDWTPPPEVTLVLTKENFDEVVNDADIILVEFYAPWCGHCKKLAPEYEKAAKELSKRSPPIPLAKVDATAETDLAKRFDVSGYPTLKIFRKGRPYDYNGPREKYGIVDYMIEQSGPPSKEILTLKQVQEFLKDGDDVIIIGVFKGESDPAYQQYQDAANNLREDYKFHHTFSTEIAKFLKVSQGQLVVMQPEKFQSKYEPRSHMMDVQGSTQDSAIKDFVLKYALPLVGHRKVSNDAKRYTRRPLVVVYYSVDFSFDYRAATQFWRSKVLEVAKDFPEYTFAIADEEDYAGEVKDLGLSESGEDVNAAILDESGKKFAMEPEEFDSDTLREFVTAFKKGKLKPVIKSQPVPKNNKGPVKVVVGKTFDSIVMDPKKDVLIEFYAPWCGHCKQLEPVYNSLAKKYKGQKGLVIAKMDATANDVPSDRYKVEGFPTIYFAPSGDKKNPVKFEGGDRDLEHLSKFIEEHATKLSRTKEEL", "values": [{"measurement": "binding", "value": "binds"}]}]}
